{"source": "PubChem BioAssay AID504808 | Drosophila RNAi Screening Center, 2011", "assay": "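Chromatin factors that keep E2F targets switched off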 (primary screen)", "cells": "Drosophila S2 cells", "reagent": "long dsRNA against Drosophila genes", "measurement": "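Firefly luciferase driven by E2F sites, normalised to Renilla luciferase on the same minimal promoter, measured by plate reader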", "scale": "E2F firefly: higher = more E2F reporter activity; Renilla normaliser: higher = more normaliser reporter signal", "hit rule": "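a knock-down counted as active when the firefly/Renilla E2F signal rose above 50%, a threshold chosen arbitrarily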", "note": "The screen tested about 21,000 reagents; below is a random part of those that have a named target and a result. In the full data, 18 (0.084%) were called active. 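Raw counts without plate normalisation, one of two replicates; the ratio scores behind the calls were not deposited.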 Entries without a mark were called inactive. Not stated in the record: the amount of reagent, the time to read-out."}
{"predicted target": "CG6470", "amplicon": "DRSC19994", "E2F firefly, rep 1": 1.42e5, "Renilla normaliser, rep 1": 5211}
{"predicted target": "CG30339", "amplicon": "DRSC05168", "E2F firefly, rep 1": 1.41e5, "Renilla normaliser, rep 1": 5662}
{"predicted target": "Bap111 (Brahma associated protein 111kD)", "amplicon": "DRSC18419", "E2F firefly, rep 1": 64502, "Renilla normaliser, rep 1": 696}
{"predicted target": "mRpL40 (mitochondrial ribosomal protein L40)", "amplicon": "DRSC15749", "E2F firefly, rep 1": 1.47e5, "Renilla normaliser, rep 1": 6476}
{"predicted target": "Cog6 (Component of oligomeric golgi complex 6)", "amplicon": "DRSC06806", "E2F firefly, rep 1": 3222, "Renilla normaliser, rep 1": 55}

2 of these entries, set out differently.
predicted target	amplicon	E2F firefly, rep 1	Renilla normaliser, rep 1
CG30339	DRSC05168	1.41e5	5662
Bap111 (Brahma associated protein 111kD)	DRSC18419	64502	696

The list goes on:
{"predicted target": "CG15356", "amplicon": "DRSC00386", "E2F firefly, rep 1": 1.72e5, "Renilla normaliser, rep 1": 6623}
{"predicted target": "CG43078", "amplicon": "DRSC10292", "E2F firefly, rep 1": 86792, "Renilla normaliser, rep 1": 4094}
{"predicted target": "CG43078", "amplicon": "DRSC10608", "E2F firefly, rep 1": 84276, "Renilla normaliser, rep 1": 3779}
{"predicted target": "Obp83b (Odorant-binding protein 83b)", "amplicon": "DRSC12360", "E2F firefly, rep 1": 1.42e5, "Renilla normaliser, rep 1": 6776}
{"predicted target": "CG17290", "amplicon": "DRSC06662", "E2F firefly, rep 1": 1.92e5, "Renilla normaliser, rep 1": 4731}
{"predicted target": "Atg14 (Autophagy-related 14)", "amplicon": "DRSC14421", "E2F firefly, rep 1": 2008, "Renilla normaliser, rep 1": 1132}
{"predicted target": "Hr39 (Hormone receptor-like in 39)", "amplicon": "DRSC03346", "E2F firefly, rep 1": 75522, "Renilla normaliser, rep 1": 3767}
